Some of the results follow.
Key:
Assay in all cases: log2 fold change, soluble protein after heating vs DMSO (PISA); higher = thermal stabilisation; K562 lysate, 10 uM; active = over 0.2 and 3.5 SD of the protein, either way, in both replicates (recomputed)
lapatinib = compound: CS(=O)(=O)CCNCc1ccc(-c2ccc3ncnc(Nc4ccc(OCc5cccc(F)c5)c(Cl)c4)c3c2)o1 [lapatinib]
Outline: (§1)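 K562 pellets were dounce-homogenised in PBS pH 7.4 with 1 mM MgCl2, and the crude extract at 1 mg/mL protein was treated with 10 μM compound for 30 min. Aliquots were heated for 3 min across 48°C-58°C, pooled, and brought to 0.5% NP-40 at 4°C; soluble protein was the supernatant after 21,000xg for 90 min. Soluble protein was quantified by TMTpro 16plex LC-MS/MS with channel sums equalised, and reported as log2 fold change in thermal stability against DMSO controls, with values from duplicates.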

Amino acid sequences for entries named in this document (tags omitted). A change or cut given only in a name is not applied to a line headed by its entry.
UniProt P62820, whole entry, looked up: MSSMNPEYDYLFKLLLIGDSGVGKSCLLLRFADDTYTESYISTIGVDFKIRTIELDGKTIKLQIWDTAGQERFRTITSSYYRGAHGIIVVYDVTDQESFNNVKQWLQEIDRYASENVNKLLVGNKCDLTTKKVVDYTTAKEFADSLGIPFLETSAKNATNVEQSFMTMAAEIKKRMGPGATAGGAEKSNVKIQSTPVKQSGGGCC
UniProt Q6ZRP7: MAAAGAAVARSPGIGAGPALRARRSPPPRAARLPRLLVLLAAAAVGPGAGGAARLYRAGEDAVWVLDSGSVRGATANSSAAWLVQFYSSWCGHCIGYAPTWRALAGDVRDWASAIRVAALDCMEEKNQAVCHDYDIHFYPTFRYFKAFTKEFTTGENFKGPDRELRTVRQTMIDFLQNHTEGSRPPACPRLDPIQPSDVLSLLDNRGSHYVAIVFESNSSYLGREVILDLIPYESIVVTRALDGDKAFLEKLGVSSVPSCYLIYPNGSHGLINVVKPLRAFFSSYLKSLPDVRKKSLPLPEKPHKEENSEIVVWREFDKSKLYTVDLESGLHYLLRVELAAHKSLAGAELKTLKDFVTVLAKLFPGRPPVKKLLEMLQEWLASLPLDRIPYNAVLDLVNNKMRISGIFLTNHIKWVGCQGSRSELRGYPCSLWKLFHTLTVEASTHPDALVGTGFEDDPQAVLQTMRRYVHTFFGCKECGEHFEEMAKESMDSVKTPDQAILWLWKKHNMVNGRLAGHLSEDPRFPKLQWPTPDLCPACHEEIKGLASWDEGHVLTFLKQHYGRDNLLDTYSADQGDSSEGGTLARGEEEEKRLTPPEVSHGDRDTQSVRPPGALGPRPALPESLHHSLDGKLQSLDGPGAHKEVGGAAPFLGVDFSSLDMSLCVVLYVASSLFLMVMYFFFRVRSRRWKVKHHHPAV
UniProt P20336: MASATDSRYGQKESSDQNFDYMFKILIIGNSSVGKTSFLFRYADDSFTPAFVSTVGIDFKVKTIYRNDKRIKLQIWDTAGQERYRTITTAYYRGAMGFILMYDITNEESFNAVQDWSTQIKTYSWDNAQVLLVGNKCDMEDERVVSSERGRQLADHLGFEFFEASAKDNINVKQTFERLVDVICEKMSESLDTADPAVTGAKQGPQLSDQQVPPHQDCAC
UniProt Q96S59, whole entry, looked up: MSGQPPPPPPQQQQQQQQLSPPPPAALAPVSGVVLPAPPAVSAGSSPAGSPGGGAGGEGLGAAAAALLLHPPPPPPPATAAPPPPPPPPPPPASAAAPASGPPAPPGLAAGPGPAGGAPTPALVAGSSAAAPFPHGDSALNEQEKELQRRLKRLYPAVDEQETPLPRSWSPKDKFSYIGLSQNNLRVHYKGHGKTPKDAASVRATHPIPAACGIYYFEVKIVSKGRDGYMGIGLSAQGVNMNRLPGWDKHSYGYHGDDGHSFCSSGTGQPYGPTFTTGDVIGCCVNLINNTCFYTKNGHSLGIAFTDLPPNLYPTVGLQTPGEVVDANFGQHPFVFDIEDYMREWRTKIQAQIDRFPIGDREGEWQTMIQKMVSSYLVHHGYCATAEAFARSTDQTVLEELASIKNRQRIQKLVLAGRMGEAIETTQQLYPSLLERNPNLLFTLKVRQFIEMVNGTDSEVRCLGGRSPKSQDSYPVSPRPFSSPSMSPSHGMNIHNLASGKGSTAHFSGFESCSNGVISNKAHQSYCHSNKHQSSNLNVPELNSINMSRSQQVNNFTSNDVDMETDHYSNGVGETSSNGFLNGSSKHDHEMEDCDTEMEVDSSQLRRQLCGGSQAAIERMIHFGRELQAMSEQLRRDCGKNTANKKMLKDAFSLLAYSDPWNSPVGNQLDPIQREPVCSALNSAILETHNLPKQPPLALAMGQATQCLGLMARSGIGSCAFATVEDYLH
UniProt Q9NS91, whole entry, looked up: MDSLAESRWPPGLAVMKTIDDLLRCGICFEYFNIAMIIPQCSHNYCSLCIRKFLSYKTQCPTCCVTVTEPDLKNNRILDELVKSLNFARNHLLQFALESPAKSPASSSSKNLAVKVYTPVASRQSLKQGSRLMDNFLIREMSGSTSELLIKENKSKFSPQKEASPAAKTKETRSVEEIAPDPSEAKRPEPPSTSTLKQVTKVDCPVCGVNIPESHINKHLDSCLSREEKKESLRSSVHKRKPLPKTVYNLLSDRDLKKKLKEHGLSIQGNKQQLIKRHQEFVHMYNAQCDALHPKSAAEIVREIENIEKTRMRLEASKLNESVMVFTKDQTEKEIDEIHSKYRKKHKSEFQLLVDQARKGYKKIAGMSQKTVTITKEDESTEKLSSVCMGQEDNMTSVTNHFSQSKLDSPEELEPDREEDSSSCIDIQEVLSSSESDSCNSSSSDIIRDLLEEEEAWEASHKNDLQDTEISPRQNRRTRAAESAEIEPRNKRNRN
UniProt Q96C36: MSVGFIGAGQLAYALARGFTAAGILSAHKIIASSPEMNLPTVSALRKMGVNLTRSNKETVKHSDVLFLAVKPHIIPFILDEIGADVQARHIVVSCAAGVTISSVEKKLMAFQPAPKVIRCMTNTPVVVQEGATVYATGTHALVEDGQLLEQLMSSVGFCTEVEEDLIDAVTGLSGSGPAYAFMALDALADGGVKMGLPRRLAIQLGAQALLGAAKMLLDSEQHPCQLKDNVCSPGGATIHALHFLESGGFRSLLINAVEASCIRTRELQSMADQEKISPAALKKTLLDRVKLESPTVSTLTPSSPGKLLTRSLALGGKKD
UniProt P10114: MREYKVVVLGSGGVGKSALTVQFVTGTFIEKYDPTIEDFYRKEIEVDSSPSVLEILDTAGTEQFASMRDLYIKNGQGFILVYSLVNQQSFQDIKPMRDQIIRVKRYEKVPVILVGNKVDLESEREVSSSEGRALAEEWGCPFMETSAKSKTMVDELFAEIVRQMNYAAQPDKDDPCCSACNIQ
UniProt Q6VN20, whole entry, looked up: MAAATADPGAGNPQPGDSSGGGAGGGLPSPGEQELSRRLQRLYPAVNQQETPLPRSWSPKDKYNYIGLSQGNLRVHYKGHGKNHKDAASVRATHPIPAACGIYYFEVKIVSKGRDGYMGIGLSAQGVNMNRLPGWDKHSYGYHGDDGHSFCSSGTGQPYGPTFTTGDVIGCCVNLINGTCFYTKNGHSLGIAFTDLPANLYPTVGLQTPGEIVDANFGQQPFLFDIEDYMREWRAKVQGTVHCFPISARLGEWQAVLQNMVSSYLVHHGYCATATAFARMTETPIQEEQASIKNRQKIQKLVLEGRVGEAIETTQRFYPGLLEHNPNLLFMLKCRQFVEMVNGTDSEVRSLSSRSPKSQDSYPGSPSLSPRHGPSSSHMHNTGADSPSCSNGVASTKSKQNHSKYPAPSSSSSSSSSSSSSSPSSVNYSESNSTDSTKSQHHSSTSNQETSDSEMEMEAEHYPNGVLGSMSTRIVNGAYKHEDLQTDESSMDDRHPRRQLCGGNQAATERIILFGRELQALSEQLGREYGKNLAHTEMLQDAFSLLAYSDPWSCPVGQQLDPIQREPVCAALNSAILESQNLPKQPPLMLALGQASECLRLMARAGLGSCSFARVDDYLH
UniProt Q9P0K7: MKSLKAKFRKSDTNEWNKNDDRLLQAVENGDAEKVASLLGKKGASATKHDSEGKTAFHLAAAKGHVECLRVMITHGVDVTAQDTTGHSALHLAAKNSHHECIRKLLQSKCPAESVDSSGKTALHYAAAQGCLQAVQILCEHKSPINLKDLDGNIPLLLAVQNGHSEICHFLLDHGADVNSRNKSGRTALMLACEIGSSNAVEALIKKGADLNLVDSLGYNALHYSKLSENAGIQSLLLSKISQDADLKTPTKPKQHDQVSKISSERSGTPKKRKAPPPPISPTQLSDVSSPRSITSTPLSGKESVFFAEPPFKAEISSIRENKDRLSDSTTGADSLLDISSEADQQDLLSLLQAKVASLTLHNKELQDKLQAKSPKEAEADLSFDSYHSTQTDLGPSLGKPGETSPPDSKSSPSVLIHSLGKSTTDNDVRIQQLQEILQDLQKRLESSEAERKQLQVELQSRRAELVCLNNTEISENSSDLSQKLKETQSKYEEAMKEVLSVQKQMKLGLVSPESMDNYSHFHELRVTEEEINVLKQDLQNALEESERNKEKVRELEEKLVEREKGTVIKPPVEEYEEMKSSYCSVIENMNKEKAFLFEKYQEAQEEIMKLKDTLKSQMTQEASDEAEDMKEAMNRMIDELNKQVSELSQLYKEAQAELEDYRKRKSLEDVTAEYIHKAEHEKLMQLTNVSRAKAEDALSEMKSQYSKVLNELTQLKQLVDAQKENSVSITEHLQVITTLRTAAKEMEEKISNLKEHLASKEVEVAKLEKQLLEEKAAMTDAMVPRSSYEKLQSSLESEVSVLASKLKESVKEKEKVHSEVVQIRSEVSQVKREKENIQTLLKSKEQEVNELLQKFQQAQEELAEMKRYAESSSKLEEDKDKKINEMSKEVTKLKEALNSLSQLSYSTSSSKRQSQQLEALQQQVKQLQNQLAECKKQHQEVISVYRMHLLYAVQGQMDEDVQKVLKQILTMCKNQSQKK
UniProt Q9NP72: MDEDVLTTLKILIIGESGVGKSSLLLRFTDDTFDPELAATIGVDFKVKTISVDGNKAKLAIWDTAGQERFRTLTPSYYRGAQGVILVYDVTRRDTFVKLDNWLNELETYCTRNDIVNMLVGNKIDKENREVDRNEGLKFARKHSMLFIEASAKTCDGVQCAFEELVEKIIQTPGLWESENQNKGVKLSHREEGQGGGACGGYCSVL
UniProt P51148: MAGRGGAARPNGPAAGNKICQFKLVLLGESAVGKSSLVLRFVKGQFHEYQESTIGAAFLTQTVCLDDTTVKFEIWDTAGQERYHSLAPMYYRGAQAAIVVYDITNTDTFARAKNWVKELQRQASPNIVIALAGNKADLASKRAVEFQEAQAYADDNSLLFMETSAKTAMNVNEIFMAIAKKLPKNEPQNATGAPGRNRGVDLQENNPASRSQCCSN
UniProt Q5HYI8: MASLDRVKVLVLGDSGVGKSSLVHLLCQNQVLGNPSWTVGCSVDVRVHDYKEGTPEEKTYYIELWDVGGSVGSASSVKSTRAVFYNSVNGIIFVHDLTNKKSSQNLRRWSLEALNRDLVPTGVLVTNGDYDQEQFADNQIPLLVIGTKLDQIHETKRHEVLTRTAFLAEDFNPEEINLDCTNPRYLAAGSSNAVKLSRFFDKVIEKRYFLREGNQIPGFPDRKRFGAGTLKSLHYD
UniProt Q96I23: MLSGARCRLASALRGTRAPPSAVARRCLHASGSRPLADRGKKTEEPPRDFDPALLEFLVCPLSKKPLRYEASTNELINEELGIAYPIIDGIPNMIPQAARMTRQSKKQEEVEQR
UniProt Q9H0R6: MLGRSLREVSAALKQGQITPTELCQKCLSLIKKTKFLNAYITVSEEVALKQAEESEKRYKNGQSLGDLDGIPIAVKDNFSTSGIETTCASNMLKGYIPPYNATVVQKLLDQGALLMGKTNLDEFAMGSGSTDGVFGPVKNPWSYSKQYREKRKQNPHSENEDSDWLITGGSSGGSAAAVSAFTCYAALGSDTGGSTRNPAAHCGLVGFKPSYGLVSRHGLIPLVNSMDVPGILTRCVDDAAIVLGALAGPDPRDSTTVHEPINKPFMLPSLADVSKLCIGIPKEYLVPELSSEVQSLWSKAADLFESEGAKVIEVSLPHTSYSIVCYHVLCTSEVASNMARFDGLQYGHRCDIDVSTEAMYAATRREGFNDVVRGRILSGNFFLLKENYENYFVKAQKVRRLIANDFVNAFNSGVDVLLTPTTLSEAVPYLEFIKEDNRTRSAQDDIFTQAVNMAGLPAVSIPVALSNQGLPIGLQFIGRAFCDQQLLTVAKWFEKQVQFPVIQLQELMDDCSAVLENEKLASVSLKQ

pictilisib = compound: CS(=O)(=O)N1CCN(Cc2cc3nc(-c4cccc5[nH]ncc45)nc(N4CCOCC4)c3s2)CC1 [pictilisib]
Outline: as §1

crizotinib = compound: C[C@@H](Oc1cc(-c2cnn(C3CCNCC3)c2)cnc1N)c1c(Cl)ccc(F)c1Cl [crizotinib]
Outline: as §1

[1] = compound: C[C@H](C1=CC=C(C=C1)C(=O)NC2=C3C=CNC3=NC=C2)N
Outline: as §1

duvelisib = compound: C[C@H](Nc1ncnc2nc[nH]c12)c1cc2cccc(Cl)c2c(=O)n1-c1ccccc1 [duvelisib]
Outline: as §1

gandotinib = compound: Cc1cc(Nc2cc(CN3CCOCC3)c3nc(C)c(Cc4ccc(Cl)cc4F)n3n2)n[nH]1 [gandotinib]
Outline: as §1

tozasertib = compound: Cc1cc(Nc2cc(N3CCN(C)CC3)nc(Sc3ccc(NC(=O)C4CC4)cc3)n2)n[nH]1 [tozasertib]
Outline: as §1

doramapimod = compound: Cc1ccc(-n2nc(C(C)(C)C)cc2NC(=O)Nc2ccc(OCCN3CCOCC3)c3ccccc23)cc1 [doramapimod]
Outline: as §1

bafetinib = compound: Cc1ccc(NC(=O)c2ccc(CN3CC[C@H](N(C)C)C3)c(C(F)(F)F)c2)cc1Nc1nccc(-c2cncnc2)n1 [bafetinib]
Outline: as §1

[2] = compound: Cc1cccc(CC(=O)N2CCc3c2ccc(-c2cn(C)c4ncnc(N)c24)c3F)n1
Outline: as §1

nilotinib = compound: Cc1cn(-c2cc(NC(=O)c3ccc(C)c(Nc4nccc(-c5cccnc5)n4)c3)cc(C(F)(F)F)c2)cn1 [nilotinib]
Outline: as §1

[3] = compound: Cc1nc(Nc2n[nH]c3c2CN(C(=O)N[C@H](CN(C)C)c2ccccc2)C3(C)C)c2sccc2n1
Outline: as §1

dasatinib = compound: Cc1nc(Nc2ncc(C(=O)Nc3c(C)cccc3Cl)s2)cc(N2CCN(CCO)CC2)n1 [dasatinib]
Outline: as §1

[4] = compound: Cc1ncc(-c2ccnc(Nc3ccc(S(C)(=O)=O)cc3)n2)n1C(C)C
Outline: as §1

[5] = compound: Cn1cc(-c2ccc3c(c2)CCN3C(=O)Cc2cccc(C(F)(F)F)c2)c2c(N)ncnc21
Outline: as §1

quisinostat = compound: Cn1cc(CNCC2CCN(c3ncc(C(=O)NO)cn3)CC2)c2ccccc21 [quisinostat]
Outline: as §1

tipifarnib = compound: Cn1cncc1[C@@](N)(c1ccc(Cl)cc1)c1ccc2c(c1)c(-c1cccc(Cl)c1)cc(=O)n2C [tipifarnib]
Outline: as §1

[6] = compound: NC(=O)Nc1cc(-c2cccc(F)c2)sc1C(=O)N[C@H]1CCCNC1
Outline: as §1

[7] = compound: NC(=O)c1cnc(N[C@@H]2CCCC[C@@H]2N)nc1Nc1cccc(-n2nccn2)c1
Outline: as §1

[8] = compound: NC1(c2ccc(-c3nc4ccn5c(=O)[nH]nc5c4cc3-c3ccccc3)cc2)CCC1
Outline: as §1

Measured: log2 fold change

RAB1A (UniProt P62820)
inactive: lapatinib -0.003 | pictilisib -0.033 | crizotinib 0.034 | [1] 0.032 | duvelisib 0 | gandotinib -0.038 | tozasertib 0.017 | doramapimod 0.012 | bafetinib 0.018 | [2] -0.01 | nilotinib 0.041 | [3] 0.002 | dasatinib -0.033 | [4] -0.018 | [5] 0.002 | quisinostat 0.011 | tipifarnib -0.07 | [6] -0.031 | [7] -0.03 | [8] -0.015

QSOX2 (UniProt Q6ZRP7)
inactive: lapatinib 0.027 | pictilisib -0.019 | crizotinib -0.002 | [1] -0.136 | duvelisib -0.035 | gandotinib 0.034 | tozasertib -0.015 | doramapimod 0.03 | bafetinib -0.061 | [2] 0.068 | nilotinib 0.025 | [3] -0.049 | dasatinib -0.001 | [4] -0.019 | [5] -0.001 | quisinostat 0.044 | tipifarnib -0.015 | [6] -0.016 | [7] -0.041 | [8] 0.008

RAB3A (UniProt P20336)
inactive: lapatinib -0.1 | pictilisib 0.039 | crizotinib 0.102 | [1] 0.033 | duvelisib 0.027 | gandotinib -0.052 | tozasertib -0.028 | doramapimod 0.1 | bafetinib 0.074 | [2] -0.123 | nilotinib 0.002 | [3] 0.029 | dasatinib -0.073 | [4] 0.008 | [5] 0.002 | quisinostat 0.142 | tipifarnib 0.034 | [6] -0.071 | [7] -0.027 | [8] 0.019

RABGAP1L isoform 3 (UniProt Q5R372)
inactive: lapatinib -0.028 | pictilisib 0.035 | crizotinib 0.002 | [1] -0.085 | duvelisib 0.012 | gandotinib 0.012 | tozasertib -0.043 | doramapimod 0.034 | bafetinib -0.033 | [2] 0.069 | nilotinib 0.005 | [3] 0.001 | dasatinib 0.024 | [4] 0.022 | [5] 0.022 | quisinostat -0.01 | tipifarnib -0.026 | [6] 0 | [7] -0.011 | [8] -0.015

RANBP9 (UniProt Q96S59)
inactive: lapatinib -0.021 | pictilisib 0.03 | crizotinib -0.015 | [1] -0.004 | duvelisib 0 | gandotinib -0.022 | tozasertib -0.003 | doramapimod 0.015 | bafetinib -0.025 | [2] 0.063 | nilotinib 0.019 | [3] -0.009 | dasatinib -0.005 | [4] -0.028 | [5] -0.015 | quisinostat -0.031 | tipifarnib 0 | [6] 0.031 | [7] 0.022 | [8] -0.049

RABGAP1L isoform 5 (UniProt Q5R372)
inactive: lapatinib -0.022 | pictilisib -0.01 | crizotinib -0.016 | [1] 0.054 | duvelisib 0.019 | gandotinib 0.011 | tozasertib 0.013 | doramapimod 0.042 | bafetinib 0.037 | [2] 0.003 | nilotinib 0.005 | [3] 0 | dasatinib -0.064 | [4] 0.013 | [5] 0.067 | quisinostat -0.051 | tipifarnib 0.03 | [6] -0.035 | [7] 0.055 | [8] 0.05

RAD18 (UniProt Q9NS91)
inactive: lapatinib -0.093 | pictilisib 0.006 | crizotinib 0.015 | [1] 0.014 | duvelisib 0.023 | gandotinib 0.002 | tozasertib 0.04 | doramapimod 0.04 | bafetinib -0.024 | [2] 0.022 | nilotinib -0.015 | [3] 0.005 | dasatinib -0.04 | [4] -0.002 | [5] 0 | quisinostat 0.009 | tipifarnib -0.012 | [6] -0.01 | [7] 0.025 | [8] 0.031

PYCR2 (UniProt Q96C36)
inactive: lapatinib -0.029 | pictilisib -0.021 | crizotinib 0.026 | [1] 0.021 | duvelisib -0.004 | gandotinib 0.01 | tozasertib 0.001 | doramapimod -0.012 | bafetinib 0.034 | [2] -0.01 | nilotinib 0.03 | [3] -0.027 | dasatinib 0.011 | [4] -0.007 | [5] -0.005 | quisinostat 0.073 | tipifarnib -0.015 | [6] -0.021 | [7] 0.007 | [8] 0.018

RAP2A (UniProt P10114)
inactive: lapatinib -0.065 | pictilisib -0.039 | crizotinib -0.015 | [1] -0.017 | duvelisib 0.019 | gandotinib 0.001 | tozasertib -0.017 | doramapimod -0.014 | bafetinib 0.015 | [2] -0.011 | nilotinib -0.003 | [3] -0.05 | dasatinib 0.049 | [4] 0.042 | [5] -0.017 | quisinostat 0.001 | tipifarnib 0.04 | [6] -0.017 | [7] 0.021 | [8] -0.004

RANBP10 (UniProt Q6VN20)
inactive: lapatinib 0.05 | pictilisib -0.049 | crizotinib -0.03 | [1] -0.019 | duvelisib -0.01 | gandotinib -0.009 | tozasertib 0.046 | doramapimod -0.022 | bafetinib -0.132 | [2] 0.022 | nilotinib 0.009 | [3] 0.015 | dasatinib -0.04 | [4] 0.043 | [5] 0.016 | quisinostat -0.008 | tipifarnib 0.001 | [6] 0.029 | [7] 0.015 | [8] 0.004

RAI14 isoform 2 (UniProt Q9P0K7)
inactive: lapatinib -0.026 | pictilisib -0.007 | crizotinib -0.014 | [1] 0 | duvelisib -0.025 | gandotinib -0.051 | tozasertib 0.009 | doramapimod 0 | bafetinib -0.029 | [2] 0.002 | nilotinib -0.004 | [3] -0.006 | dasatinib -0.003 | [4] -0.05 | [5] 0.013 | quisinostat -0.023 | tipifarnib -0.036 | [6] -0.02 | [7] 0.012 | [8] -0.013

RAB18 isoform 2 (UniProt Q9NP72)
inactive: lapatinib -0.019 | pictilisib 0.041 | crizotinib 0.008 | [1] -0.051 | duvelisib 0.001 | gandotinib 0.05 | tozasertib 0.007 | doramapimod -0.068 | bafetinib -0.022 | [2] 0.135 | nilotinib -0.028 | [3] 0.057 | dasatinib 0.011 | [4] -0.038 | [5] -0.009 | quisinostat 0.04 | tipifarnib -0.016 | [6] 0.014 | [7] -0.055 | [8] -0.004

RAB5C isoform 2 (UniProt P51148)
inactive: lapatinib -0.006 | pictilisib -0.062 | crizotinib 0.011 | [1] -0.079 | duvelisib 0.012 | gandotinib 0.012 | tozasertib -0.019 | doramapimod -0.028 | bafetinib 0.021 | [2] 0.043 | nilotinib 0.027 | [3] 0.015 | dasatinib -0.05 | [4] 0.004 | [5] 0 | quisinostat 0.002 | tipifarnib -0.009 | [6] 0.008 | [7] -0.009 | [8] -0.018

Pulled one by one from the list above, two records:
RAI14 isoform 2 (UniProt Q9P0K7)
inactive: lapatinib -0.026 | pictilisib -0.007 | crizotinib -0.014 | [1] 0 | duvelisib -0.025 | gandotinib -0.051 | tozasertib 0.009 | doramapimod 0 | bafetinib -0.029 | [2] 0.002 | nilotinib -0.004 | [3] -0.006 | dasatinib -0.003 | [4] -0.05 | [5] 0.013 | quisinostat -0.023 | tipifarnib -0.036 | [6] -0.02 | [7] 0.012 | [8] -0.013

RAB5C isoform 2 (UniProt P51148)
inactive: lapatinib -0.006 | pictilisib -0.062 | crizotinib 0.011 | [1] -0.079 | duvelisib 0.012 | gandotinib 0.012 | tozasertib -0.019 | doramapimod -0.028 | bafetinib 0.021 | [2] 0.043 | nilotinib 0.027 | [3] 0.015 | dasatinib -0.05 | [4] 0.004 | [5] 0 | quisinostat 0.002 | tipifarnib -0.009 | [6] 0.008 | [7] -0.009 | [8] -0.018

Next entries follow.

RABL3 (UniProt Q5HYI8)
inactive: lapatinib 0.036 | pictilisib -0.028 | crizotinib -0.102 | [1] -0.017 | duvelisib 0.198 | gandotinib -0.097 | tozasertib -0.003 | doramapimod 0.085 | bafetinib -0.05 | [2] 0.031 | nilotinib 0.049 | [3] -0.03 | dasatinib -0.077 | [4] -0.051 | [5] 0.01 | quisinostat -0.056 | tipifarnib 0.08 | [6] 0.084 | [7] -0.003 | [8] 0.267

PYURF (UniProt Q96I23)
inactive: lapatinib 0.036 | pictilisib -0.066 | crizotinib 0.016 | [1] 0.01 | duvelisib 0.087 | gandotinib -0.015 | tozasertib -0.048 | doramapimod 0.011 | bafetinib 0.091 | [2] 0.015 | nilotinib -0.03 | [3] 0.051 | dasatinib 0.002 | [4] 0.004 | [5] 0.048 | quisinostat 0.011 | tipifarnib -0.009 | [6] -0.075 | [7] -0.064 | [8] -0.006

QRSL1 (UniProt Q9H0R6)
inactive: lapatinib 0.038 | pictilisib 0.044 | crizotinib 0.031 | [1] 0.105 | duvelisib 0.044 | gandotinib -0.04 | tozasertib 0.044 | doramapimod 0.003 | bafetinib -0.227 | [2] -0.022 | nilotinib -0.022 | [3] 0.031 | dasatinib -0.018 | [4] 0.069 | [5] 0.07 | quisinostat -0.054 | tipifarnib -0.002 | [6] 0.034 | [7] -0.02 | [8] -0.031
